Publication PMC5080334
No constants are given. Whether binding was seen depends on the method and setting. Where a sequence is shown, tags or fusion partners need not be part of it.

Sequences of proteins named here, by UniProt entry; tags and fusion partners are left off.
UniProt Q9LE42: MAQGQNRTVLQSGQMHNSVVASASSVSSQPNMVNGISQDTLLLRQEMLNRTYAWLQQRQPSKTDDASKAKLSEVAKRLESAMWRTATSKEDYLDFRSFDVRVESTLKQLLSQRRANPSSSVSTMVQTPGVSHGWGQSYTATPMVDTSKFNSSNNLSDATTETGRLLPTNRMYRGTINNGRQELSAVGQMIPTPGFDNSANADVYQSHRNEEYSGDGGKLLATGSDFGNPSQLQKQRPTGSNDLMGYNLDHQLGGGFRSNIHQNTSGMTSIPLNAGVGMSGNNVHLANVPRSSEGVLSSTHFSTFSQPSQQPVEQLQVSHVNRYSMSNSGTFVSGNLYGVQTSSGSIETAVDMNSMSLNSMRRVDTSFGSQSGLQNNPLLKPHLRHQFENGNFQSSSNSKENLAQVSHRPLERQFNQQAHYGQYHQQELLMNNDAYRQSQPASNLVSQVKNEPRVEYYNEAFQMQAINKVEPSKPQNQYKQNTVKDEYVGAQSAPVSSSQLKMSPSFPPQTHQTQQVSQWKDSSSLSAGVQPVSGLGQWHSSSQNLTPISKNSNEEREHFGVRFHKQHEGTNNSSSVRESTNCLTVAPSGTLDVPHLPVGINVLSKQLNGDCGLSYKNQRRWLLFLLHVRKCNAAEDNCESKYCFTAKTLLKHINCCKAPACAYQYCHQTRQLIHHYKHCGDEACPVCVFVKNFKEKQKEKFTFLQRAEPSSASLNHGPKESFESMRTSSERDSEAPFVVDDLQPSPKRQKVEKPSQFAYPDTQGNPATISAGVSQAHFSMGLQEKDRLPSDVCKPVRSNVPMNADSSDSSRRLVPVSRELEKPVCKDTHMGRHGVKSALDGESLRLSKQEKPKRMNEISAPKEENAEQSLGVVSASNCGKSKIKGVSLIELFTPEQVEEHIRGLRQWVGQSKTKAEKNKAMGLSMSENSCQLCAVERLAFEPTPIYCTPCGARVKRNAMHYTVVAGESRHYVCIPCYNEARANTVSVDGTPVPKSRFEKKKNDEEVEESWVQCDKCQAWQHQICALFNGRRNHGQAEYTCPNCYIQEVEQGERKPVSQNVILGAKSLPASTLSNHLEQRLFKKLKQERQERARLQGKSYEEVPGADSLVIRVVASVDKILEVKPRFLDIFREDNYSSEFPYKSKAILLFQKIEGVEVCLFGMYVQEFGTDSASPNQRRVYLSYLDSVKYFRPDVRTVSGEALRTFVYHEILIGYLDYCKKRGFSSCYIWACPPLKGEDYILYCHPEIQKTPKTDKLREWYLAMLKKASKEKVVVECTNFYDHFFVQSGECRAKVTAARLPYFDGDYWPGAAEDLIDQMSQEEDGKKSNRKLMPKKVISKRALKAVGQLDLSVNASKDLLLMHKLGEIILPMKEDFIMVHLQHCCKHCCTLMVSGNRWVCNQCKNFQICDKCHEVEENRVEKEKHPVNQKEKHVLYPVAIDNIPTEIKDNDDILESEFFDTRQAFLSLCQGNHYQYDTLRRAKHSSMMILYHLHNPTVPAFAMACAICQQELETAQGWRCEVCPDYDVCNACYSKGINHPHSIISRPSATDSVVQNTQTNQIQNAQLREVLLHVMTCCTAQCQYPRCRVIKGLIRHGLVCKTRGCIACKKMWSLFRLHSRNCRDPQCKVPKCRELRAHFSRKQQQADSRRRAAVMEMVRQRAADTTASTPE

B1: Damaged DNA Binding Protein 1b (protein, UniProt O49552 1-1088)
chain: MSVWNYAVTAQKPTCVTHSCVGNFTSPQELNLIVAKSTRIEIHLLSPQGLQTILDVPLYGRIATMELFRPHGEAQDFLFVATERYKFCVLQWDYESSELITRAMGDVSDRIGRPTDNGQIGIIDPDCRVIGLHLYDGLFKVIPFDNKGQLKEAFNIRLEELQVLDIKFLYGCTKPTIAVLYQDNKDARHVKTYEVSLKDKNFVEGPWSQNNLDNGADLLIPVPSPLCGVLIIGEETIVYCSANAFKAIPIRPSITKAYGRVDLDGSRYLLGDHAGLIHLLVITHEKEKVTGLKIELLGETSIASSISYLDNAVVFVGSSYGDSQLIKLNLQPDAKGSYVEILEKYVNLGPIVDFCVVDLERQGQGQVVTCSGAYKDGSLRIVRNGIGINEQASVELQGIKGMWSLKSSIDEAFDTFLVVSFISETRILAMNIEDELEETEIEGFLSEVQTLFCHDAVYNQLVQVTSNSVRLVSSTTRELRNKWDAPAGFSVNVATANASQVLLATGGGHLVYLEIGDGTLTEVKHVLLEYEVSCLDINPIGDNPNYSQLAAVGMWTDISVRIFVLPDLTLITKEELGGEIIPRSVLLCAFEGISYLLCALGDGHLLNFQLDTSCGKLRDRKKVSLGTRPITLRTFSSKSATHVFAASDRPAVIYSNNKKLLYSNVNLKEVSHMCPFNSAAFPDSLAIAREGELTIGTIDDIQKLHIRTIPIGEHARRICHQEQTRTFAISCLRNEPSAEESESHFVRLLDAQSFEFLSSYPLDAFECGCSILSCSFTDDKNVYYCVGTAYVLPEENEPTKGRILVFIVEEGRLQLITEKETKGAVYSLNAFNGKLLASINQKIQLYKWMLRDDGTRELQSECGHHGHILALYVQTRGDFIAVGDLMKSISLLIYKHEEGAIEERARDYNANWMTAVEILNDDIYLGTDNCFNIFTVKKNNEGATDEERARMEVVGEYHIGEFVNRFRHGSLVMKLPDSDIGQIPTVIFGTVSGMIGVIASLPQEQYAFLEKLQTSLRKVIKGVGGLSHEQWRSFNNEKRTAEAKGYLDGDLIESFLDLSRGKMEEISKGMDVQVEELCKRVEELTRLH
B2: Damaged DNA Binding Protein 1a (protein, UniProt Q9M0V3 1-1088)
chain: MSSWNYVVTAHKPTSVTHSCVGNFTSPQELNLIVAKCTRIEIHLLTPQGLQPMLDVPIYGRIATLELFRPHGEAQDFLFIATERYKFCVLQWDPESSELITRAMGDVSDRIGRPTDNGQIGIIDPDCRLIGLHLYDGLFKVIPFDNKGQLKEAFNIRLEELQVLDIKFLFGCAKPTIAVLYQDNKDARHVKTYEVSLKDKDFVEGPWSQNSLDNGADLLIPVPPPLCGVLIIGEETIVYCSASAFKAIPIRPSITKAYGRVDVDGSRYLLGDHAGMIHLLVITHEKEKVTGLKIELLGETSIASTISYLDNAVVFVGSSYGDSQLVKLNLHPDAKGSYVEVLERYINLGPIVDFCVVDLERQGQGQVVTCSGAFKDGSLRVVRNGIGINEQASVELQGIKGMWSLKSSIDEAFDTFLVVSFISETRILAMNLEDELEETEIEGFLSQVQTLFCHDAVYNQLVQVTSNSVRLVSSTTRELRDEWHAPAGFTVNVATANASQVLLATGGGHLVYLEIGDGKLTEVQHALLEYEVSCLDINPIGDNPNYSQLAAVGMWTDISVRIFSLPELTLITKEQLGGEIIPRSVLLCAFEGISYLLCALGDGHLLNFQMDTTTGQLKDRKKVSLGTQPITLRTFSSKSATHVFAASDRPTVIYSSNKKLLYSNVNLKEVSHMCPFNSAAFPDSLAIAREGELTIGTIDDIQKLHIRTIPLGEHARRICHQEQTRTFGICSLGNQSNSEESEMHFVRLLDDQTFEFMSTYPLDSFEYGCSILSCSFTEDKNVYYCVGTAYVLPEENEPTKGRILVFIVEDGRLQLIAEKETKGAVYSLNAFNGKLLAAINQKIQLYKWMLRDDGTRELQSECGHHGHILALYVQTRGDFIVVGDLMKSISLLLYKHEEGAIEERARDYNANWMSAVEILDDDIYLGAENNFNLLTVKKNSEGATDEERGRLEVVGEYHLGEFVNRFRHGSLVMRLPDSEIGQIPTVIFGTVNGVIGVIASLPQEQYTFLEKLQSSLRKVIKGVGGLSHEQWRSFNNEKRTAEARNFLDGDLIESFLDLSRNKMEDISKSMNVQVEELCKRVEELTRLH
B3: Histone Deacetylase 1 (enzyme, UniProt O22446 1-501)
chain: MDTGGNSLASGPDGVKRKVCYFYDPEVGNYYYGQGHPMKPHRIRMTHALLAHYGLLQHMQVLKPFPARDRDLCRFHADDYVSFLRSITPETQQDQIRQLKRFNVGEDCPVFDGLYSFCQTYAGGSVGGSVKLNHGLCDIAINWAGGLHHAKKCEASGFCYVNDIVLAILELLKQHERVLYVDIDIHHGDGVEEAFYATDRVMTVSFHKFGDYFPGTGHIQDIGYGSGKYYSLNVPLDDGIDDESYHLLFKPIMGKVMEIFRPGAVVLQCGADSLSGDRLGCFNLSIKGHAECVKFMRSFNVPLLLLGGGGYTIRNVARCWCYETGVALGVEVEDKMPEHEYYEYFGPDYTLHVAPSNMENKNSRQMLEEIRNDLLHNLSKLQHAPSVPFQERPPDTETPEVDEDQEDGDKRWDPDSDMDVDDDRKPIPSRVKREAVEPDTKDKDGLKGIMERGKGCEVEVDESGSTKVTGVNPVGVEEASVKMEEEGTNKGGAEQAFPPKT
B4: Damaged DNA binding 2 (protein, UniProt Q6NQ88 1-557)
chain: MSSTRSRRKRDPEIVIARDTDSELSSSEEEEEEEDNYPFSESEEEDEAVKNGGKIELEKNKAKGKAPITVKLIKKVCKVCKQPGHEAGFKGATYIDCPMKPCFLCKMPGHTTMSCPHRVVTDHGILPTSHRNTKNPIDFVFKRQLQPRIPPIKPKYVIPDQVHCAVIRYHSRRVTCLEFHPTKNNILLSGDKKGQIGVWDFGKVYEKNVYGNIHSVQVNNMRFSPTNDDMVYSASSDGTIGYTDLETGTSSTLLNLNPDGWQGANSWKMLYGMDINSEKGVVLAADNFGFLHMIDHRTNNSTGEPILIHKQGSKVCGLDCNPVQPELLLSCGNDHFARIWDMRKLQPKASLHDLAHKRVVNSAYFSPSSGTKILTTCQDNRIRIWDSIFGNLDLPSREIVHSNDFNRHLTPFKAEWDPKDTSESLIVIGRYISENYNGTALHPIDFIDASNGQLVAEVMDPNITTITPVNKLHPRDDVLASGSSRSLFIWRPQDNTEMVEEKKDKKIIICYGDSKKKGKKQKRGSDDEDDEDDIFSSKGKNIKVNKYQAKTTKKTKT

What follows are molecules tested against T1, UV … LOCUS 8 (Arabidopsis thaliana) (UniProt Q9FN03) (assay: two-hybrid; yeast two-hybrid, performed as described in Hayes et al. (2014); which protein was bait and whether the yeast was exposed to UV-B is not told for each pair).
T1 sequence: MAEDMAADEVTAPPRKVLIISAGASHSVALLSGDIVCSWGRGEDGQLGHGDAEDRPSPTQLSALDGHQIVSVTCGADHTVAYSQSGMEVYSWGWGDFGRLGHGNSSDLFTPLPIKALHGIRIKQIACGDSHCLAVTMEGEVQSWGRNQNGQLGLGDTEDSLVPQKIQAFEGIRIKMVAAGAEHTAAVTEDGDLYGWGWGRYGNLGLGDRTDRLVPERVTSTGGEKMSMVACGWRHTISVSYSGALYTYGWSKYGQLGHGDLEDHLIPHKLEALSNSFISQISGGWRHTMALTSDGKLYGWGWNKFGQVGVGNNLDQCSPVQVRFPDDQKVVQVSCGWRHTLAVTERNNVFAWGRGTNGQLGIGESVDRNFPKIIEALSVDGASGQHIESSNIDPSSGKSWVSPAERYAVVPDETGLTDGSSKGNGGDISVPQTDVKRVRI

binding, no binding:
Histone Acetyltransferase 5 (from UniProt Q9LE42 1-1670) (enzyme)
B1
B2
B3
B4
